Drawing on paper PMC5362411, this text covers binding for 1 substance.

Chains of the proteins cited; added tags and fusions are not shown.
UniProt Q96DH6: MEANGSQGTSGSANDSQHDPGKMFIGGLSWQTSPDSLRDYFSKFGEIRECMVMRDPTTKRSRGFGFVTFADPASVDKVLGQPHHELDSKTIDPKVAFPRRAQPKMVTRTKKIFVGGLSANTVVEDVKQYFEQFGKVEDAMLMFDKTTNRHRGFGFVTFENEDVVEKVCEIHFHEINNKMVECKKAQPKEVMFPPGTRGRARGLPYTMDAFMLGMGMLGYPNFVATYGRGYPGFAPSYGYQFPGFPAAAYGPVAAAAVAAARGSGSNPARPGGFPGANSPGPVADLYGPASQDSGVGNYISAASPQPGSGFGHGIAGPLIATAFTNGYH

The target of the assay is T1, Numb (human (endogenous in Capan-2, PANC-1, BxPC-3)) (UniProt P49757).
T1 sequence: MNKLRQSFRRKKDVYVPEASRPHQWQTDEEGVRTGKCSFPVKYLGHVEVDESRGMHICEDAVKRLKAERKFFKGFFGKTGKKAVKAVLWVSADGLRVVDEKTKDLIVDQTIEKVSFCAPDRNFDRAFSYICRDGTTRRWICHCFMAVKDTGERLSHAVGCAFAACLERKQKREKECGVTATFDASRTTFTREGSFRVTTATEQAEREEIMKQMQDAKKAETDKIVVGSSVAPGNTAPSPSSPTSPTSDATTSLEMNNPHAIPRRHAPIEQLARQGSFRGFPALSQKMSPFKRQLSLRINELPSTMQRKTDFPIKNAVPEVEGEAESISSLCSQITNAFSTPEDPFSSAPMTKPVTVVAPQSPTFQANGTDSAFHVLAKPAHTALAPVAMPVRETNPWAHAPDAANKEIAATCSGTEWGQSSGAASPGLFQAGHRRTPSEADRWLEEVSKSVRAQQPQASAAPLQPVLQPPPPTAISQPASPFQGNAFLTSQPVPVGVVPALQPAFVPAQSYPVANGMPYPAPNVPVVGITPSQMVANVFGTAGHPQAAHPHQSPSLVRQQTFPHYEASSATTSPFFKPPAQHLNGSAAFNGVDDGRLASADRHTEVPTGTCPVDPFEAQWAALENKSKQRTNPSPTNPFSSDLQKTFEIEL
As to the kind of experiment: co-IP; lysates of Capan-2, PANC-1 and BxPC-3 cells (20 mM Tris/HCl pH 7.4, 1.0% NP-40, 1 mM EDTA, 150 mM NaCl); Numb antibody overnight at 4°C, protein A-Sepharose 4B, washed three times with lysis buffer, immunoblot with MSI2 antibody. For orientation: Immunoblotting shows a protein as a band on a membrane.

No constants are given. Whether binding was seen depends on the method and setting. Binding seen in cells or lysates may run through a third protein. Some entries that bind do so weakly or less than the wild type.

Regarding Musashi2 (from UniProt Q96DH6 1-328), the binding result is reported as “binds”.
